Data published in patent publication US11045519B2, “Arginine-rich polypeptide compositions and methods of using same” (UNM Rainforest Innovations, priority 2017, dated 2021).
Some entries share one result that the patent states for a list of compounds.

Tested on: HPV16 PsVs
Experiment: Post-attachment and time-course HPV16 PsV infection of HaCaT cells
Assay type: cell-based
Details: 2 μM PrS (complex: with 0.1% HMW HA), added after 6 h post-binding
Procedure: FIG. 6. PolyR inhibits HPV16 PsV infection at pre-attachment and post-attachment stages. (A) Infection of HaCaT cells with HPV16. Semi-confluent HaCaT cells were left untreated with polyR (H16) or exposed to HPV16 PsV 1 h before (polyR/H16) or one hour after […] (H16/PolyR) treatment, were subjected to infectivity measurements after a 24-hour incubation at 37° C. (as described in FIG. 1). (B) Time-course experiments of HPV infection in the absence or presence of polyR. Untreated control cells were infected with HPV16 PsV (HPV16). HaCaT cells were treated with 1 μM polyR before (+1 h polyR/HPV16), concurrently (0 h polyR/HPV16) or at one hour, two hours, four hours, six hours, or eight hours post-attachment of HPV16 PsVs. Infection was scored at 24 hours post HPV attachment and shift to 37° C.
FIG. 18. PrS post-attachment effect on HPV infection. […] Infection scored 24 after infection as described in FIG. 12.
FIG. 20. […] HaCaT cells were treated with 2 μM PrS or 2 μM PrS associated with 0.1% HMW HA at indicated times post-attachment of HPV16 PsVs, and infection was scored 24 hours after infection as described in FIG. 12. […]
Next, the effectiveness of polyR treatment in blocking infection when added at increasing times post HPV binding to cells was tested. […] Infection efficiency was measured after a 24-hour incubation at 37° C. […]

Substance: protamine sulfate (MPRRRRSSSRPVRRRRRPRVSRRRRRRGGRRRR; sulfate salt; listed as Oncorhynchus keta) [PrS, sulfate form of salmon protamine, FDA approved arginine-rich polypeptide, reference compound]
- inhibition of infection: > 60%
